# PubChem BioAssay AID1259331 | Drosophila RNAi Screening Center, 2017
# Aim: 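Genes whose knock-down changes cell survival under toxic zinc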 (primary screen)
# System: Drosophila S2R+ cells
# Knock-down reagent: long dsRNA against Drosophila genes
# Duration: 5 days (4 days knock-down, then 1 day zinc)
# Treatment: zinc chloride at 15 mM final level for 1 day
# Read-out: 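Luminescent ATP assay standing in for viability; Z score is the mean over three replicate plates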
# Direction: mean Z score: higher = more ATP than other wells, better survival under zinc; ATP luminescence: higher = more ATP, more viable cells
# Hit rule: 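Hit when the absolute Z score is greater than 1.5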
# Calls: active = hit, ATP up or down; inactive = not a hit
# This is an unselected part of about 3,100 reagents. 126 of them (4.1%) were called active. 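Calls are per reagent; zinc was so toxic that few knock-downs lowered ATP further, so most hits raise ATP.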 Raw values are not corrected between plates. A number with no mark means an inactive call. A plus sign joins genes that one reagent is predicted to hit. Not given: the amount of reagent.
mean Z score,"ATP luminescence, replicate 1","ATP luminescence, replicate 2",gene,dsRNA
-0.261,26805,31296,CG8785,DRSC07266
2.45 (active),92415,88999,frj (farjavit),DRSC03250
-0.461,56876,51218,frj (farjavit),DRSC39648
-0.176,52064,55505,SLC5A11 (Sodium/solute co-transporter-like 5A11),DRSC03088
-0.0981,52861,56932,SLC5A11 (Sodium/solute co-transporter-like 5A11),DRSC39771
0.0949,77439,63084,Best3 (Bestrophin 3),DRSC09880
-0.439,58711,48509,Best3 (Bestrophin 3),DRSC39740
-0.753,69282,53721,alphaKap4 (alpha Karyopherin-4),DRSC09823
-0.455,53807,50875,alphaKap4 (alpha Karyopherin-4),DRSC39588
-0.263,67446,68229,mew (multiple edematous wings),DRSC18971
0.876,79920,81247,mew (multiple edematous wings),DRSC20352
-0.207,37056,62450,Cnx99A (Calnexin 99A),DRSC25426
-0.479,23942,27662,CG8195,DRSC07103
9.66 (active),1.52e5,1.73e5,Nup98-96 (Nucleoporin 98-96kD),DRSC14209
2.39 (active),75450,92363,Nup98-96 (Nucleoporin 98-96kD),DRSC14210
-0.172,69841,56551,CG13248,DRSC11696
-0.9,39850,53873,CG13248,DRSC24446
0.239,50018,45483,Tsp42Ej (Tetraspanin 42Ej),DRSC06113
-0.431,41548,68178,Tsp42Ej (Tetraspanin 42Ej),DRSC28269
-0.814,53208,51869,CG12730,DRSC17885
0.151,58197,49366,CG12730,DRSC39454
-0.241,57802,52058,l(1)1Bb + ebo,DRSC28174
-0.232,51081,54939,l(1)1Bb + ebo,DRSC39798
0.114,50909,49726,MFS14 (Major Facilitator Superfamily Transporter 14),DRSC29787
1.38,79360,87646,MFS14 (Major Facilitator Superfamily Transporter 14),DRSC39753
0.165,1.14e5,76445,Or42b (Odorant receptor 42b),DRSC04913
0.124,59062,60546,Or42b (Odorant receptor 42b),DRSC27273
4.91 (active),1.00e5,1.11e5,CG14232,DRSC19588
0.41,65125,60083,CG14232,DRSC27714
0.44,74306,72362,osy (oskyddad),DRSC14903
0.0905,39542,44445,osy (oskyddad),DRSC15979
-0.2,39662,46931,osy (oskyddad),DRSC15981
2.68 (active),1.26e5,1.02e5,Oct-TyrR (Octopamine-Tyramine receptor),DRSC11883
-0.119,58574,58145,Oct-TyrR (Octopamine-Tyramine receptor),DRSC39865
-0.111,35085,57099,Task7 (TWIK-related acid-sensitive K[+] channel 7),DRSC16477
0.0826,58643,58917,Task7 (TWIK-related acid-sensitive K[+] channel 7),DRSC26662
-0.307,27076,31560,tipE (temperature-induced paralytic E),DRSC08738
0.0258,48337,49572,tipE (temperature-induced paralytic E),DRSC29985
-0.412,38660,36165,Gr22f (Gustatory receptor 22f),DRSC00076
0.151,62665,58248,Gr22f (Gustatory receptor 22f),DRSC26841
0.254,59586,60032,heix (heixuedian),DRSC03542
-0.344,57185,51476,heix (heixuedian),DRSC39734
0.787,55093,45680,CG17600,DRSC20640
0.344,46366,54956,CG17600,DRSC22753
-0.0761,56345,59586,CG17600,DRSC27203
-0.749,35222,38897,rho-4 (rhomboid-4),DRSC19761
0.533,73460,76359,rho-4 (rhomboid-4),DRSC19762
0.00932,45285,45748,CG4928,DRSC19342
-0.299,60426,53087,CG4928,DRSC29007
0.0846,32324,32616,pippin,DRSC04489
1,81566,67273,pippin,DRSC39700
1.69 (active),94044,94007,sog (short gastrulation),DRSC20379
-0.422,37656,37827,CCKLR-17D1 (Cholecystokinin-like receptor at 17D1),DRSC20011
-0.447,38192,35300,CCKLR-17D1 (Cholecystokinin-like receptor at 17D1),DRSC20012
-0.226,58711,51580,CCKLR-17D1 (Cholecystokinin-like receptor at 17D1),DRSC28081
-0.236,65485,58728,CG13978,DRSC14720
0.211,39730,61335,GluClalpha (Glutamate-gated chloride channel subunit alpha),DRSC16680
-0.232,29650,28565,TM4SF (Transmembrane 4 superfamily),DRSC04661
-0.456,52915,53361,TM4SF (Transmembrane 4 superfamily),DRSC39574
-0.125,1.07e5,70973,hrm (hermes),DRSC04853
-0.772,29530,20600,ATP8A (ATPase 8A),DRSC06643
-0.517,65451,61318,ATP8A (ATPase 8A),DRSC06644
0.129,42525,48543,Spase22-23 (Spase 22/23-subunit),DRSC15857
-0.177,44531,43828,CG42322,DRSC15112
-0.225,35187,54541,CG42322,DRSC15113
-0.72,66223,47735,Or67b (Odorant receptor 67b),DRSC11241
0.0253,63221,59174,Or67b (Odorant receptor 67b),DRSC39658
-0.615,55865,55830,mys (myospheroid),DRSC18799
-0.167,58180,59466,mys (myospheroid),DRSC29061
